Sequences and labels used below:
T1: BD-AtCGL160N, AtCGL160N (29-206 aa) fused to the GAL4 DNA-binding domain (Arabidopsis thaliana) (UniProt O82279)
T1 sequence: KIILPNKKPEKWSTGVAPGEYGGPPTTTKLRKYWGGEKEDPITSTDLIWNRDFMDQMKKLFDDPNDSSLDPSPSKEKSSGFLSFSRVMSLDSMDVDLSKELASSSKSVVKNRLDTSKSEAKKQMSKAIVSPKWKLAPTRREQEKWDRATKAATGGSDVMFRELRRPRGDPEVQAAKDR

B1: AtCGL160, endogenous in wild-type (Col-0) thylakoids (protein, UniProt O82279 47-350)
chain: GEYGGPPTTTKLRKYWGGEKEDPITSTDLIWNRDFMDQMKKLFDDPNDSSLDPSPSKEKSSGFLSFSRVMSLDSMDVDLSKELASSSKSVVKNRLDTSKSEAKKQMSKAIVSPKWKLAPTRREQEKWDRATKAATGGSDVMFRELRRPRGDPEVQAAKDREQYFKLKNKIQVLTLGIGGVGLVSAYISYTPEIALSFGAGLLGSLAYMRMLGNSVDAMADGARGVAKGAANQPRLLVPVVLVMIFNRWNAILVPEYGFMHLELIPMLVGFFTYKIATFFQAIEEAISITTQKPESISPDTQASD

Results are given in words; binding and its absence hold for the method and conditions named. Binding calls can cover weak binding; strength is not graded here. For part of these data: Sequences can lack the tags named with a protein. For part of these data: Binding seen in cells or lysates may run through a third protein.

In one assay the target is T1, BD-AtCGL160N, AtCGL160N (29-206 aa) fused to the GAL4 DNA-binding domain (Arabidopsis thaliana). Description: two-hybrid.
For “AD-CF1-βII, domain II of CF1-β fused to the GAL4 activation domain (domain or fragment)”, the binding entry is listed as “no binding”. Take “AD-CF1-βI, domain I of CF1-β fused to the GAL4 activation domain (domain or fragment)”: the binding entry is recorded as “no binding”. The same measure, in the same setting: with “AD-CF1-βIII, domain III of CF1-β fused to the GAL4 activation domain (domain or fragment)” the entry was “binds”; with “AD-CF1-γ, CF1-γ fused to the GAL4 activation domain”, “no binding”. Same read-out and setting: with “AD-AtCGLD11, CF1 assembly factor AtCGLD11 fused to the GAL4 activation domain (Arabidopsis thaliana)” the entry was “no binding”.

In the next assay the target is CF1-CFO holo-complex (chloroplast ATP synthase), endogenous in wild-type thylakoids (Arabidopsis thaliana (endogenous in Col-0 thylakoids)). Description: cross-linking.
As to B1, the binding entry is reported as “binds”.

The values above are taken from article doi:10.1101/2021.10.01.462544.
